# Test results from paper doi:10.1101/2024.07.11.603088.
# Results are given in words; binding and its absence hold for the method and conditions named. In cells and extracts the contact can be indirect.
# How the values were obtained:
# [1] = target: Flag-tagged mutant YTHDF2 W486A (UniProt Q9Y5A9); assay: proximity ligation
# [2] = target: Flag-tagged mutant YTHDF2 W432A (UniProt Q9Y5A9); assay: proximity ligation
substance,measurement,setting,value
"Aiolos (IKZF3) (human, endogenous) (from UniProt Q9UKT9 1-509)",binding,[1],no binding
same,binding,[2],no binding
